Test results taken from publication PMC5996148.
The other results are listed elsewhere or left out.

Experiments:
Assay in all cases: protein microarray (ProtoArray v5.0), streptavidin-Alexa Fluor 647
Conditions in all cases: 3'-biotin; 20 mM Tris (pH 7.5), 5 mM MgCl2, 100 mM KCl, 0.1% Tween-20, A/T-rich and random oligonucleotide blockers; temperature not stated; high values mean tight binding
DPP3 (human) = tested on: DPP3 (human)
DSCR4 (human) = tested on: DSCR4 (human)
DTNB (human) = tested on: DTNB (human)
DTNBP1 (human) = tested on: DTNBP1 (human)
DTYMK (human) = tested on: DTYMK (human)
DUSP22 (human) = tested on: DUSP22 (human)
DUSP6 (human) = tested on: DUSP6 (human)
DUT (human) = tested on: DUT (human)
DYDC1 (human) = tested on: DYDC1 (human)
DYNC1LI2 (human) = tested on: DYNC1LI2 (human)

GGTGACAGGGGTATGGGGAGGGG [G4-2 biotinylated (Ct1)]
binding signal (DPP3 (human)): -0.389 z-score | binding signal (DSCR4 (human)): -0.38 z-score | binding signal (DTNB (human)): -0.384 z-score | binding signal (DTNBP1 (human)): -0.381 z-score | binding signal (DTYMK (human)): -0.394 z-score | binding signal (DUSP22 (human)): -0.383 z-score | binding signal (DUSP6 (human)): -0.402 z-score | binding signal (DUT (human)): -0.372 z-score | binding signal (DYDC1 (human)): -0.397 z-score | binding signal (DYNC1LI2 (human)): -0.396 z-score
